Data reported in paper doi:10.1101/266908.
Like-named read-outs stand apart in the source and are kept apart here. These are yes or no findings as the source states them, for the method shown. In cells and extracts the contact can be indirect. Here binding means that the protein was enriched with, or labelled near, the bait; the list need not be complete.

By UniProt entry, the sequences of proteins in these tests, tags left out.
UniProt P03372: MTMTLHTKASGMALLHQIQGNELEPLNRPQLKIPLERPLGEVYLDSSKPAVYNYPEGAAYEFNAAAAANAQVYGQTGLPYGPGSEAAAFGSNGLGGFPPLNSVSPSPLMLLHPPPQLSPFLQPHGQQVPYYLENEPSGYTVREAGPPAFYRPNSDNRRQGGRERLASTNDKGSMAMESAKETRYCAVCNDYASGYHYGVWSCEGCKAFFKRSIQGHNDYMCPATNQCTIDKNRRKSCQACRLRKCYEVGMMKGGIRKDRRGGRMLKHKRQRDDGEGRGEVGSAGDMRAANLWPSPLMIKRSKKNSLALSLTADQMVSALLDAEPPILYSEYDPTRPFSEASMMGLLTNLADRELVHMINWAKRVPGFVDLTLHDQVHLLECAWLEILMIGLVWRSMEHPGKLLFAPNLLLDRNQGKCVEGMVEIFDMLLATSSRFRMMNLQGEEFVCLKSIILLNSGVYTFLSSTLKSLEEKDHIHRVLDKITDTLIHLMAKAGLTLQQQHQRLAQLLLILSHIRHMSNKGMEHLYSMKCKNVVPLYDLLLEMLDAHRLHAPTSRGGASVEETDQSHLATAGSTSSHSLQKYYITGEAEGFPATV
UniProt P10276: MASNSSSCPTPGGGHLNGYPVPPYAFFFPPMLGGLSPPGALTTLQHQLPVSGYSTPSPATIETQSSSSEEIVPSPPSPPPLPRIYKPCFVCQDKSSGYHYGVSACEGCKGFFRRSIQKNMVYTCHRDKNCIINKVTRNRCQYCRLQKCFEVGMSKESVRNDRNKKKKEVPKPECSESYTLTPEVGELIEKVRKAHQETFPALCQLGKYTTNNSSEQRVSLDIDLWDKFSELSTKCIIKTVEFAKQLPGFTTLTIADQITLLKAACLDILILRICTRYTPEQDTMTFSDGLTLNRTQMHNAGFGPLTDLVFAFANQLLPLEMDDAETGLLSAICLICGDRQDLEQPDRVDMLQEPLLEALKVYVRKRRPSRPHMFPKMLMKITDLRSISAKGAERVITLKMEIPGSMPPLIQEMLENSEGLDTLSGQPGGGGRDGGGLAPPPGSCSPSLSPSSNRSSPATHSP
UniProt Q13547: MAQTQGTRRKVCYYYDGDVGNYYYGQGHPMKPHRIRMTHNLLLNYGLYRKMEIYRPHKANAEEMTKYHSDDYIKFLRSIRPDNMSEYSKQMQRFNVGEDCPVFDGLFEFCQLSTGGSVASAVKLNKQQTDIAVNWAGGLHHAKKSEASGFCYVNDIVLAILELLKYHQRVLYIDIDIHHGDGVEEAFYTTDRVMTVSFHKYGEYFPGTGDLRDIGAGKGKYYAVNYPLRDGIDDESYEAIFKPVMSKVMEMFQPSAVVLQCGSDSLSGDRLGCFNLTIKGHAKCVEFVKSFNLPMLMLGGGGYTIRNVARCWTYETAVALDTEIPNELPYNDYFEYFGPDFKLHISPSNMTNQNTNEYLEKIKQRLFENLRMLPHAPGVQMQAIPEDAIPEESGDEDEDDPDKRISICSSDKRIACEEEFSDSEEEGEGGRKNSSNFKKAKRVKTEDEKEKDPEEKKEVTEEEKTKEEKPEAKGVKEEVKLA
UniProt P23771: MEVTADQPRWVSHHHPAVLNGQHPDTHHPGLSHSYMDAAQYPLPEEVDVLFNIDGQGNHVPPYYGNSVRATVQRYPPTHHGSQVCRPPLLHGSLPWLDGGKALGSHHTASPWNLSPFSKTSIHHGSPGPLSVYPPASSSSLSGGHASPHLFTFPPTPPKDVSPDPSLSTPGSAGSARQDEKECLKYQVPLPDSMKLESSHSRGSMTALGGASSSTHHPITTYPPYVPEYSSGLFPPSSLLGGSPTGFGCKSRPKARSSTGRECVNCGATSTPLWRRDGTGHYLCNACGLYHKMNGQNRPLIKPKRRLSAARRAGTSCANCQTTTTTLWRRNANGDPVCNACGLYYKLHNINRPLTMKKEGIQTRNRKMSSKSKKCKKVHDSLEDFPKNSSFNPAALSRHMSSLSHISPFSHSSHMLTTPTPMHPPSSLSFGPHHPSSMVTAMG

T1: Grainyhead Like Transcription Factor 2 (human (endogenous in MCF7)) (UniProt Q6ISB3)
T1 sequence: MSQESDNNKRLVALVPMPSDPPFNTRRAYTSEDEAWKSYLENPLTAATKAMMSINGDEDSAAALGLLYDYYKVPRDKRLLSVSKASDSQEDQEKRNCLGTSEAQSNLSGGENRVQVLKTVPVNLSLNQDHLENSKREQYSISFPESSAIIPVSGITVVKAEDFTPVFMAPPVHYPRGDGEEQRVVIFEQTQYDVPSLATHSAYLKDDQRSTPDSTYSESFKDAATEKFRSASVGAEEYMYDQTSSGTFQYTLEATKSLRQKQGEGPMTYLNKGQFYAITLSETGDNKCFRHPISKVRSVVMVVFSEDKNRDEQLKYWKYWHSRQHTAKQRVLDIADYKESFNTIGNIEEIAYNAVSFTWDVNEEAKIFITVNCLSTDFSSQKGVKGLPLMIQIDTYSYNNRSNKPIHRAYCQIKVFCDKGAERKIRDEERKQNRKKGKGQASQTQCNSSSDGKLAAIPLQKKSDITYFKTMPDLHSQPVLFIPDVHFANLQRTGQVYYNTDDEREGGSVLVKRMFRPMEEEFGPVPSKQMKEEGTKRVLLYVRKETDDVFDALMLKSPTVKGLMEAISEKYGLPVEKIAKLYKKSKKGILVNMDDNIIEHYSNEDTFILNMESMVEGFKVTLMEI


Key:
Experiment in all cases: affinity purification with mass spectrometry
[1] = target: T1, Grainyhead Like Transcription Factor 2 (human (endogenous in MCF7))
[2] = target: Estrogen Receptor-alpha (human (endogenous in MCF7)) (UniProt P03372)
[3] = target: Estrogen Receptor-alpha (human (endogenous in MCF7)) (UniProt P03372); remark: listed apart in the source
[4] = target: T1, Grainyhead Like Transcription Factor 2 (human (endogenous in MCF7)); remark: listed apart in the source

| Molecule | binding [1] | binding [2] | further results |
| --- | --- | --- | --- |
| Estrogen Receptor-alpha (from UniProt P03372 1-595) | binds | – | – |
| RARA (from UniProt P10276 1-462) | – | binds | – |
| HDAC1 (from UniProt Q13547 1-482) | binds | – | – |
| GATA3 (from UniProt P23771 1-443) | – | binds | – |
| Grainyhead Like Transcription Factor 2 (protein, UniProt Q6ISB3 1-625) MSQESDNNKRLVALVPMPSDPPFNTRRAYTSEDEAWKSYLENPLTAATKAMMSINGDEDSAAALGLLYDYYKVPRDKRLLSVSKASDSQEDQEKRNCLGTSEAQSNLSGGENRVQVLKTVPVNLSLNQDHLENSKREQYSISFPESSAIIPVSGITVVKAEDFTPVFMAPPVHYPRGDGEEQRVVIFEQTQYDVPSLATHSAYLKDDQRSTPDSTYSESFKDAATEKFRSASVGAEEYMYDQTSSGTFQYTLEATKSLRQKQGEGPMTYLNKGQFYAITLSETGDNKCFRHPISKVRSVVMVVFSEDKNRDEQLKYWKYWHSRQHTAKQRVLDIADYKESFNTIGNIEEIAYNAVSFTWDVNEEAKIFITVNCLSTDFSSQKGVKGLPLMIQIDTYSYNNRSNKPIHRAYCQIKVFCDKGAERKIRDEERKQNRKKGKGQASQTQCNSSSDGKLAAIPLQKKSDITYFKTMPDLHSQPVLFIPDVHFANLQRTGQVYYNTDDEREGGSVLVKRMFRPMEEEFGPVPSKQMKEEGTKRVLLYVRKETDDVFDALMLKSPTVKGLMEAISEKYGLPVEKIAKLYKKSKKGILVNMDDNIIEHYSNEDTFILNMESMVEGFKVTLMEI | – | – | binding [3]: binds |
| TIF1A (protein, UniProt O15164 1-1050) MEVAVEKAVAAAAAASAAASGGPSAAPSGENEAESRQGPDSERGGEAARLNLLDTCAVCHQNIQSRAPKLLPCLHSFCQRCLPAPQRYLMLPAPMLGSAETPPPVPAPGSPVSGSSPFATQVGVIRCPVCSQECAERHIIDNFFVKDTTEVPSSTVEKSNQVCTSCEDNAEANGFCVECVEWLCKTCIRAHQRVKFTKDHTVRQKEEVSPEAVGVTSQRPVFCPFHKKEQLKLYCETCDKLTCRDCQLLEHKEHRYQFIEEAFQNQKVIIDTLITKLMEKTKYIKFTGNQIQNRIIEVNQNQKQVEQDIKVAIFTLMVEINKKGKALLHQLESLAKDHRMKLMQQQQEVAGLSKQLEHVMHFSKWAVSSGSSTALLYSKRLITYRLRHLLRARCDASPVTNNTIQFHCDPSFWAQNIINLGSLVIEDKESQPQMPKQNPVVEQNSQPPSGLSSNQLSKFPTQISLAQLRLQHMQQQVMAQRQQVQRRPAPVGLPNPRMQGPIQQPSISHQQPPPRLINFQNHSPKPNGPVLPPHPQQLRYPPNQNIPRQAIKPNPLQMAFLAQQAIKQWQISSGQGTPSTTNSTSSTPSSPTITSAAGYDGKAFGSPMIDLSSPVGGSYNLPSLPDIDCSSTIMLDNIVRKDTNIDHGQPRPPSNRTVQSPNSSVPSPGLAGPVTMTSVHPPIRSPSASSVGSRGSSGSSSKPAGADSTHKVPVVMLEPIRIKQENSGPPENYDFPVVIVKQESDEESRPQNANYPRSILTSLLLNSSQSSTSEETVLRSDAPDSTGDQPGLHQDNSSNGKSEWLDPSQKSPLHVGETRKEDDPNEDWCAVCQNGGELLCCEKCPKVFHLSCHVPTLTNFPSGEWICTFCRDLSKPEVEYDCDAPSHNSEKKKTEGLVKLTPIDKRKCERLLLFLYCHEMSLAFQDPVPLTVPDYYKIIKNPMDLSTIKKRLQEDYSMYSKPEDFVADFRLIFQNCAEFNEPDSEVANAGIKLENYFEELLKNLYPEKRFPKPEFRNESEDNKFSDDSDDDFVQPRKKRLKSIEERQLLK | – | – | binding [4]: binds |
